The supplement of paper PMC6821926, “Diaminoquinazoline MMV675968 from Pathogen Box inhibits Acinetobacter baumannii growth through targeting of dihydrofolate reductase” (Scientific Reports, 2019)
± gives the uncertainty stated by the source. The list shows a part of the results.

Each molecule was assayed on Acinetobacter baumannii Mahidol (assay: percent growth relative to DMSO-treated control; higher = less growth inhibition). Conditions: 10 µM; 18 h.
Cc1ccc2cc(C3NC(=O)c4ccccc4N3)c(Cl)nc2c1 (stereo not drawn) gave a percent growth of 100 ± 37%. O=C(Nc1nnc(S)s1)c1cc(Br)ccc1Cl gave a percent growth of 96.9 ± 2.8%. In the case of FC(F)(F)c1cccc(-c2nc3c(NCc4ccncc4)nccc3[nH]2)c1, the percent growth is reported as 92.58 ± 0.81%. Cc1nn(C)cc1C(C)Nc1nncc(-c2ccc(C(F)(F)F)cc2)n1 (stereo not drawn) gave a percent growth of 97.9 ± 10%. O=C(NC1CC1)c1ccc(N2CCOc3ccc(Cl)cc32)s1 gave a percent growth of 42.9 ± 45%. COc1ccccc1C(C)NCC(=O)Nc1cc(C(F)(F)F)ccc1Cl (stereo not drawn) showed a percent growth of 67.3 ± 30%. With Nc1nc2ccc(-c3cncc(Oc4ccc(F)cc4)c3)cc2[nH]1 the percent growth was 71.8 ± 21%. Molecule COc1cc(CN2CCC3(C=Cc4ccccc43)CC2)cc2c1OCO2 has a percent growth of 102 ± 5.8%. Molecule CC(C)n1ncc2c(C(=O)NCC(c3cccs3)N3CCOCC3)cc(-c3ccccc3)nc21 (stereo not drawn) has a percent growth of 107 ± 19%. In the case of O=C(Nc1ccc(N2CCNCC2)nc1)c1oc(-c2ccccc2)nc1C(F)(F)F, the percent growth is reported as 92.1 ± 9.5%. Work on Cc1ccc(Oc2ccc(NC(=O)CNc3ccccc3N3CCCC3=O)cc2)cc1 yielded a percent growth of 104 ± 37%. Molecule CN1CCN(S(=O)(=O)c2ccc(-c3ccc4c(Nc5ccc6nn[nH]c6c5)ccnc4c3)cc2)CC1 has a percent growth of 62.8 ± 30%. Cc1cccc(Cn2ccc(NC(=O)c3ccc4c(c3)OCO4)n2)c1 showed a percent growth of 46.5 ± 47%. With COc1ccc(-c2onc(C(F)(F)F)c2-c2ccc(Cl)cc2)c(O)c1 the percent growth was 83.7 ± 4.2%. In the case of CNC(=O)c1cc(S(=O)(=O)N2CCN(c3ccccn3)CC2)cs1, the percent growth is reported as 70.2 ± 19%. COc1ccc(-c2nnc3ccc(-c4cccc(C(C)C)c4)cn23)cc1OC showed a percent growth of 92.2 ± 14%. Work on COc1cccc(OCC(=O)c2ccc(Br)cc2)c1 yielded a percent growth of 104 ± 15%. CC(C)(CN)c1nc(-c2ccc(Cl)c(O)c2)c(-c2ccnc(N)n2)[nH]1 showed a percent growth of 107 ± 4.8%. For O=C([C@@H](c1ccc(Cl)cc1)c1cccnc1)N1CCN(c2ccc(C(F)(F)F)cc2)CC1, the percent growth was 94.5 ± 4.7%. In the case of COc1ccc(-c2nc(-c3cccc(NC(=O)Cc4ccc(F)cc4)c3)no2)cc1OC, the percent growth is reported as 75.5 ± 40%. c1ccc(-c2cc(N3CCCCC3)c3ccccc3n2)nc1 gave a percent growth of 97.2 ± 37%. Work on Cc1nnc(NCc2cccc(Cl)c2)c2ccccc12 yielded a percent growth of 90.3 ± 12%. O=C(C1CCN(c2nnnn2-c2ccccc2)CC1)N1CCc2ccccc2C1 was tested, and the percent growth was 85.5 ± 5.5%. Molecule Cc1noc(C)c1C(=O)N1CCCC(c2[nH]c3c(C)cccc3c2-c2ccncc2)C1 (stereo not drawn) has a percent growth of 123 ± 31%. CCOC(=O)NC(=O)c1ccsc1NC(=O)c1nc2ccccc2s1 was tested, and the percent growth was 79.9 ± 43%. CC(C)(C)c1cc(C(=O)N2CCN(c3nccnc3C#N)CC2)n(Cc2ccccc2)n1 showed a percent growth of 100 ± 11%. Work on CC(C)(C)OC(=O)N1CCN(c2cc(-c3ccc(Oc4ccccc4)cc3)n[nH]2)CC1 yielded a percent growth of 84.8 ± 5.5%. Cc1cc2nc(NC(=O)C(C)(C)C)nc(Cl)c2n1Cc1ccc(Cl)cc1 was tested, and the percent growth was 65.1 ± 23%. With CCCn1nnc(NC(=O)COc2ccc(C3CCCCC3)cc2)n1 the percent growth was 105 ± 23%. COc1ccc(C2CC(c3cccs3)=NN2C(=O)c2ccco2)cc1OC (stereo not drawn) showed a percent growth of 98.3 ± 20%. CN(C)c1cc(NC(=O)Nc2ccccc2)c2ccccc2n1 gave a percent growth of 111 ± 16%. Work on CC(=O)N(CCN(C(=O)c1ccc(F)cc1)c1ccccc1)c1ccccc1 yielded a percent growth of 103 ± 9.2%. With Cc1nc2ccccn2c1C(=O)NCc1ccc(Cl)cc1 the percent growth was 81.2 ± 75%. CC[C@@H]([C@H](C)O)n1ncn(-c2ccc(N3CCN(c4ccc(OC[C@@H]5CO[C@@](Cn6cncn6)(c6ccc(F)cc6F)C5)cc4)CC3)cc2)c1=O was tested, and the percent growth was 51.1 ± 27%. In the case of CCN(CC)CCCCCCNc1cc(OC)cc2c(C)ccnc12, the percent growth is reported as 88.8 ± 24%. For Brc1cncc(-c2cc(NCCCn3ccnc3)nc(-c3ccccc3)n2)c1, the percent growth was 79.1 ± 22%. CNC(=O)C1Cc2ccccc2N1C(=O)Cc1ccc(F)cc1 (stereo not drawn) showed a percent growth of 91 ± 12%. COc1ccc2nccc(NC(=O)C3CCN(CCc4ccc(Cl)cc4)CC3)c2n1 showed a percent growth of 44.9 ± 38%. With CC(C)(C)OC(=O)N1CCN(c2nccc(-c3ccc(-c4ccc(Cl)cc4)s3)n2)CC1 the percent growth was 105 ± 17%.

The molecules below were run on Acinetobacter baumannii Naval-81 in the same assay as above. Conditions: 10 µM; 18 h.
Cc1ccc2cc(C3NC(=O)c4ccccc4N3)c(Cl)nc2c1 (stereo not drawn) gave a percent growth of 99.4 ± 37%. Work on O=C(Nc1nnc(S)s1)c1cc(Br)ccc1Cl yielded a percent growth of 92.2 ± 20%. Molecule FC(F)(F)c1cccc(-c2nc3c(NCc4ccncc4)nccc3[nH]2)c1 has a percent growth of 89.7 ± 4%. With Cc1nn(C)cc1C(C)Nc1nncc(-c2ccc(C(F)(F)F)cc2)n1 (stereo not drawn) the percent growth was 96.5 ± 20%. Molecule O=C(NC1CC1)c1ccc(N2CCOc3ccc(Cl)cc32)s1 has a percent growth of 97.7 ± 23%. COc1ccccc1C(C)NCC(=O)Nc1cc(C(F)(F)F)ccc1Cl (stereo not drawn) showed a percent growth of 102 ± 34%. Nc1nc2ccc(-c3cncc(Oc4ccc(F)cc4)c3)cc2[nH]1 gave a percent growth of 99 ± 4.4%. Work on COc1cc(CN2CCC3(C=Cc4ccccc43)CC2)cc2c1OCO2 yielded a percent growth of 88.7 ± 16%. CC(C)n1ncc2c(C(=O)NCC(c3cccs3)N3CCOCC3)cc(-c3ccccc3)nc21 (stereo not drawn) was tested, and the percent growth was 92.7 ± 5.7%. For O=C(Nc1ccc(N2CCNCC2)nc1)c1oc(-c2ccccc2)nc1C(F)(F)F, the percent growth was 91.2 ± 3.6%. For Cc1ccc(Oc2ccc(NC(=O)CNc3ccccc3N3CCCC3=O)cc2)cc1, the percent growth was 81.21 ± 0.7%. For CN1CCN(S(=O)(=O)c2ccc(-c3ccc4c(Nc5ccc6nn[nH]c6c5)ccnc4c3)cc2)CC1, the percent growth was 83 ± 1.1%. Cc1cccc(Cn2ccc(NC(=O)c3ccc4c(c3)OCO4)n2)c1 gave a percent growth of 105 ± 30%. With COc1ccc(-c2onc(C(F)(F)F)c2-c2ccc(Cl)cc2)c(O)c1 the percent growth was 92.3 ± 5.9%. Molecule CNC(=O)c1cc(S(=O)(=O)N2CCN(c3ccccn3)CC2)cs1 has a percent growth of 103 ± 38%. For COc1ccc(-c2nnc3ccc(-c4cccc(C(C)C)c4)cn23)cc1OC, the percent growth was 101 ± 7.6%. COc1cccc(OCC(=O)c2ccc(Br)cc2)c1 gave a percent growth of 95.9 ± 14%. CC(C)(CN)c1nc(-c2ccc(Cl)c(O)c2)c(-c2ccnc(N)n2)[nH]1 showed a percent growth of 67.4 ± 24%. With O=C([C@@H](c1ccc(Cl)cc1)c1cccnc1)N1CCN(c2ccc(C(F)(F)F)cc2)CC1 the percent growth was 88.5 ± 14%. For COc1ccc(-c2nc(-c3cccc(NC(=O)Cc4ccc(F)cc4)c3)no2)cc1OC, the percent growth was 94.9 ± 28%. With c1ccc(-c2cc(N3CCCCC3)c3ccccc3n2)nc1 the percent growth was 98.8 ± 29%. Work on Cc1nnc(NCc2cccc(Cl)c2)c2ccccc12 yielded a percent growth of 88.2 ± 9.7%. Work on O=C(C1CCN(c2nnnn2-c2ccccc2)CC1)N1CCc2ccccc2C1 yielded a percent growth of 96.1 ± 4.1%. For Cc1noc(C)c1C(=O)N1CCCC(c2[nH]c3c(C)cccc3c2-c2ccncc2)C1 (stereo not drawn), the percent growth was 80.7 ± 2.7%. For CCOC(=O)NC(=O)c1ccsc1NC(=O)c1nc2ccccc2s1, the percent growth was 106 ± 31%. Molecule CC(C)(C)c1cc(C(=O)N2CCN(c3nccnc3C#N)CC2)n(Cc2ccccc2)n1 has a percent growth of 90.5 ± 5.7%. CC(C)(C)OC(=O)N1CCN(c2cc(-c3ccc(Oc4ccccc4)cc3)n[nH]2)CC1 showed a percent growth of 109 ± 11%. For Cc1cc2nc(NC(=O)C(C)(C)C)nc(Cl)c2n1Cc1ccc(Cl)cc1, the percent growth was 99.1 ± 18%. Work on CCCn1nnc(NC(=O)COc2ccc(C3CCCCC3)cc2)n1 yielded a percent growth of 80.5 ± 33%. Molecule COc1ccc(C2CC(c3cccs3)=NN2C(=O)c2ccco2)cc1OC (stereo not drawn) has a percent growth of 95.4 ± 24%. CN(C)c1cc(NC(=O)Nc2ccccc2)c2ccccc2n1 showed a percent growth of 91 ± 64%. Work on CC(=O)N(CCN(C(=O)c1ccc(F)cc1)c1ccccc1)c1ccccc1 yielded a percent growth of 89.1 ± 5.8%. For Cc1nc2ccccn2c1C(=O)NCc1ccc(Cl)cc1, the percent growth was 103 ± 32%. CC[C@@H]([C@H](C)O)n1ncn(-c2ccc(N3CCN(c4ccc(OC[C@@H]5CO[C@@](Cn6cncn6)(c6ccc(F)cc6F)C5)cc4)CC3)cc2)c1=O gave a percent growth of 106 ± 34%. In the case of CCN(CC)CCCCCCNc1cc(OC)cc2c(C)ccnc12, the percent growth is reported as 75.5 ± 40%. In the case of Brc1cncc(-c2cc(NCCCn3ccnc3)nc(-c3ccccc3)n2)c1, the percent growth is reported as 100 ± 29%. With CNC(=O)C1Cc2ccccc2N1C(=O)Cc1ccc(F)cc1 (stereo not drawn) the percent growth was 82.1 ± 17%. Work on COc1ccc2nccc(NC(=O)C3CCN(CCc4ccc(Cl)cc4)CC3)c2n1 yielded a percent growth of 104 ± 11%. Molecule CC(C)(C)OC(=O)N1CCN(c2nccc(-c3ccc(-c4ccc(Cl)cc4)s3)n2)CC1 has a percent growth of 96 ± 5.6%.
